Data reported in the supplement of paper PMC8728848.
This is one part of the list.

Key:
Test in all cases: glycan array binding signal (z-score within array); higher = stronger binding
Conditions in all cases: glycan notation: IUPAC condensed, linker removed
[1] = target: Neu5Ac(a2-3)Gal(b1-3)[Neu5Ac(a2-6)]GalNAc
Method in brief: (§1)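 Glycan array binding is given as a within-array Z-score, which can be read as non-binding when negative. The arrays, 3228 of them, came from the Consortium for Functional Glycomics database and were retained only where the protein sequence was available. Z-scores were averaged across arrays of the same protein sequence at different concentrations or buffers and across linkers.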

Neu5Ac(a2-3)Gal(b1-4)Glc = target: Neu5Ac(a2-3)Gal(b1-4)Glc
Method in brief: as §1

[2] = target: Neu5Ac(a2-3)Gal(b1-4)GlcNAc
Method in brief: as §1

[3] = target: Neu5Ac(a2-3)Gal(b1-4)GlcNAc(b1-2)Man(a1-3)[GlcNAc(b1-2)Man(b1-4)GlcNAc(b1-2)Man(a1-6)]Man(b1-4)GlcNAc(b1-4)GlcNAc
Method in brief: as §1

[4] = target: Neu5Ac(a2-3)Gal(b1-4)GlcNAc(b1-2)Man(a1-3)[Neu5Ac(a2-6)Gal(b1-4)GlcNAc(b1-2)Man(a1-6)]Man(b1-4)GlcNAc(b1-4)GlcNAc
Method in brief: as §1

[5] = target: Neu5Ac(a2-3)Gal(b1-4)GlcNAc(b1-3)Gal
Method in brief: as §1

[6] = target: Neu5Ac(a2-3)Gal(b1-4)GlcNAc(b1-3)Gal(b1-3)GlcNAc
Method in brief: as §1

[7] = target: Neu5Ac(a2-3)Gal(b1-4)GlcNAc(b1-3)Gal(b1-4)GlcNAc
Method in brief: as §1

[8] = target: Neu5Ac(a2-3)Gal(b1-4)GlcNAc(b1-3)Gal(b1-4)GlcNAc(b1-3)Gal(b1-4)GlcNAc
Method in brief: as §1

[9] = target: Neu5Ac(a2-3)Gal(b1-4)GlcNAc(b1-3)Gal(b1-4)[Fuc(a1-3)]GlcNAc
Method in brief: as §1

[10] = target: Neu5Ac(a2-3)Gal(b1-4)GlcNAc(b1-3)GalNAc
Method in brief: as §1

[11] = target: Neu5Ac(a2-3)Gal(b1-4)GlcNAc(b1-6)[Gal(b1-3)]GalNAc
Method in brief: as §1

[12] = target: Neu5Ac(a2-3)Gal(b1-4)GlcNAc(b1-6)[Neu5Ac(a2-3)Gal(b1-3)]GalNAc
Method in brief: as §1

[13] = target: Neu5Ac(a2-3)Gal(b1-4)GlcNAc6S
Method in brief: as §1

[14] = target: Neu5Ac(a2-3)Gal(b1-4)[Fuc(a1-3)]GlcNAc
Method in brief: as §1

[15] = target: Neu5Ac(a2-3)Gal(b1-4)[Fuc(a1-3)]GlcNAc(b1-3)Gal
Method in brief: as §1

[16] = target: Neu5Ac(a2-3)Gal(b1-4)[Fuc(a1-3)]GlcNAc(b1-3)Gal(b1-4)GlcNAc
Method in brief: as §1

[17] = target: Neu5Ac(a2-3)Gal(b1-4)[Fuc(a1-3)]GlcNAc(b1-3)Gal(b1-4)[Fuc(a1-3)]GlcNAc(b1-3)Gal(b1-4)[Fuc(a1-3)]GlcNAc
Method in brief: as §1

[18] = target: Neu5Ac(a2-3)Gal(b1-4)[Fuc(a1-3)]GlcNAc(b1-3)GalNAc
Method in brief: as §1

[19] = target: Neu5Ac(a2-3)Gal(b1-4)[Fuc(a1-3)]GlcNAc(b1-6)[Gal(b1-3)]GalNAc
Method in brief: as §1

[20] = target: Neu5Ac(a2-3)Gal(b1-4)[Fuc(a1-3)]GlcNAc6S
Method in brief: as §1

[21] = target: Neu5Ac(a2-3)Gal6S(b1-4)GlcNAc
Method in brief: as §1

[22] = target: Neu5Ac(a2-3)Gal6S(b1-4)[Fuc(a1-3)]GlcNAc
Method in brief: as §1

Neu5Ac(a2-3)GalNAc = target: Neu5Ac(a2-3)GalNAc
Method in brief: as §1

[23] = target: Neu5Ac(a2-3)GalNAc(b1-4)GlcNAc
Method in brief: as §1

B1: Layilin (Mus musculus), Q8C351 (protein)
chain: MQPGAALQAMLLAVLLAKPRDSKGRLLSASDLDPRGGQLVCRGGTRRPCYKVIYFHDAFQRLNFEEAKETCMEDGGQLVSIETEDEQRLIEKFIENLLASDGDFWIGLKRLEEKQSNNTACQDLYAWTDGSTSQFRNWYVDEPSCGSEVCVVMYHQPSAPPGIGGSYMFQWNDDRCNMKNNFICKYHDDKPSTTPSIWPGGEATEPATPLLPEETQKEDTKETFKERREAALNLAYILIPSIPLFLLLVVTSAVCWVWICRRKREQTDPSTKEQHTIWPTPRQENSPNLDVYNVIRKQSEADLAEPRPDLKNISFRVCSGEAMPDDMSCDYENIAVNPSESGFVTLASMESGFVTNDIYEFSPDRMGRSKESGWVENEIYY
glycan array binding signal (z-score) [1]: 0.175
glycan array binding signal (z-score) (Neu5Ac(a2-3)Gal(b1-4)Glc): -0.492
glycan array binding signal (z-score) [2]: -0.203
glycan array binding signal (z-score) [3]: -0.497
glycan array binding signal (z-score) [4]: -0.343
glycan array binding signal (z-score) [5]: 0.955
glycan array binding signal (z-score) [6]: -0.17
glycan array binding signal (z-score) [7]: -0.594
glycan array binding signal (z-score) [8]: -1.11
glycan array binding signal (z-score) [9]: 0.119
glycan array binding signal (z-score) [10]: -0.963
glycan array binding signal (z-score) [11]: -0.144
glycan array binding signal (z-score) [12]: 0.253
glycan array binding signal (z-score) [13]: 0.585
glycan array binding signal (z-score) [14]: -0.387
glycan array binding signal (z-score) [15]: -0.973
glycan array binding signal (z-score) [16]: -0.212
glycan array binding signal (z-score) [17]: 2.92
glycan array binding signal (z-score) [18]: 1.82
glycan array binding signal (z-score) [19]: 4.15
glycan array binding signal (z-score) [20]: -0.418
glycan array binding signal (z-score) [21]: -0.818
glycan array binding signal (z-score) [22]: -0.666
glycan array binding signal (z-score) (Neu5Ac(a2-3)GalNAc): -0.499
glycan array binding signal (z-score) [23]: -0.557
